PubChem BioAssay AID743454 – Peter MacCallum Cancer Centre – 2014

- Screen: 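Genes whose loss kills vorinostat-resistant colon cancer cells under vorinostat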 (primary screen)
- Cells: human HCT116-VR colon cancer cells, selected for vorinostat resistance
- Reagents: siRNA pool against human genes, 40 nM siRNA pool
- Duration: vorinostat for 24 h, read-out about 72 h after transfection
- Treatment: vorinostat at 2.5 µM final
- Measured: 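Two measures, CellTiter-Fluor viability and luminescent caspase 3/7 activity, each as fold change against same-plate mock wells, mean of duplicates, then screen-wide robust z-score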
- Direction: viability robust z-score: higher = more viable cells than screen typical; caspase robust z-score: higher = more caspase 3/7 activity than screen typical
- Hit rule: 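Hits are knock-downs in viability class RV1/RV2 or caspase class CA1/CA2, excluding ones that killed cells in the no-drug cell-count arm; hits then retested with single siRNAs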
In all, the deposit lists about 18,000 reagents; below is a random part of them. 450 of all reagents (2.5%) count as active. 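Single biological run; no consistent viability z cut-off exists, so the class columns, not z-scores, define the calls.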

CAVIN3 — viability hit class: no change; caspase hit class: no change; viability robust z-score: -0.25; caspase robust z-score: 3.89; Outcome: inactive
MTRFR — viability hit class: no change; caspase hit class: no change; viability robust z-score: -1.46; caspase robust z-score: -0.3; Outcome: inactive
THOC1 — viability hit class: no change; caspase hit class: no change; viability robust z-score: -1.22; caspase robust z-score: 4.58; Outcome: inactive
ZNF250 — viability hit class: no change; caspase hit class: no change; viability robust z-score: 0.39; caspase robust z-score: 0.16; Outcome: inactive
ZNF706 — viability hit class: no change; caspase hit class: no change; viability robust z-score: 1.82; caspase robust z-score: 0.05; Outcome: inactive
SUSD3 — viability hit class: no change; caspase hit class: no change; viability robust z-score: -0.59; caspase robust z-score: -1.04; Outcome: inactive
KIF26B — viability hit class: no change; caspase hit class: no change; viability robust z-score: -4.38; caspase robust z-score: 3.34; Outcome: inactive
PAK3 — viability hit class: no change; caspase hit class: no change; viability robust z-score: -0.22; caspase robust z-score: -0.45; Outcome: inactive
NFE4 — viability hit class: no change; caspase hit class: no change; viability robust z-score: -1.17; caspase robust z-score: -0.75; Outcome: inactive
DPP9 — viability hit class: no change; caspase hit class: no change; viability robust z-score: 0.3; caspase robust z-score: 3.17; Outcome: inactive
SLC35D1 — viability hit class: no change; caspase hit class: no change; viability robust z-score: 0.95; caspase robust z-score: -0.9; Outcome: inactive
SLC22A3 — viability hit class: no change; caspase hit class: no change; viability robust z-score: -0.33; caspase robust z-score: 0.28; Outcome: inactive
ABRAXAS1 — viability hit class: no change; caspase hit class: no change; viability robust z-score: -0.83; caspase robust z-score: 0.26; Outcome: inactive
OR6C3 — viability hit class: no change; caspase hit class: no change; viability robust z-score: -2.04; caspase robust z-score: 1.38; Outcome: inactive

2 entries from above, reformatted:
{"gene":"SLC35D1","viability hit class":"no change","caspase hit class":"no change","viability robust z-score":0.95,"caspase robust z-score":-0.9,"Outcome":"inactive"}
{"gene":"SLC22A3","viability hit class":"no change","caspase hit class":"no change","viability robust z-score":-0.33,"caspase robust z-score":0.28,"Outcome":"inactive"}
